Measurements from the supplement of paper PMC8866396.
± gives the standard deviation of the averaged measurements. The list shows a part of the results. Repeats in this data set agree poorly, so a single value says little.

System: IL-6-GFP PC-9
Assay: IL-6-GFP fluorescence relative to DMSO control (fraction of control); higher = more IL-6-GFP expression
Conditions: compound concentration: 10 uM; treatment time: 48 h
Procedure: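 IL-6-GFP-overexpressing PC-9 and PC-9GR EGFR-mutant lung cancer cells (3000 cells/well, 96-well) were treated for 48 h with each compound of the Selleck L2000 library at 10 uM. IL-6-GFP fluorescence was read on a high-content screening system, and viability by CCK-8 absorbance on a parallel plate set. Each value was normalised as compound well / DMSO control well; two independent replicates.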

With N#Cc1ccc(C2CCCc3cncn32)cc1 (centres undefined) [Fadrozole] as the molecule, how does the IL-6-GFP fluorescence read?
The IL-6-GFP fluorescence was 0.89 ± 0.14.

For CC1CC2C3CCC4=CC(=O)C=CC4(C)C3(F)C(O)CC2(C)C1(O)C(=O)COP(=O)([O-])[O-].[Na+].[Na+] (centres undefined) [Dexamethasone Sodium Phosphate], which IL-6-GFP fluorescence is on record?
The IL-6-GFP fluorescence was 0.853 ± 0.23.

COc1cc(C(=O)NS(=O)(=O)c2ccccc2C)ccc1Cc1cn(C)c2ccc(NC(=O)OC3CCCC3)cc12 [Zafirlukast] was tested. Which IL-6-GFP fluorescence did it give?
Its IL-6-GFP fluorescence is 0.938 ± 0.14.

Which IL-6-GFP fluorescence does the source give for C=CC1CC1(NC(=O)C1CC(Oc2ncc(OC)c3ccc(Cl)cc23)CN1C(=O)C(NC(=O)OC(C)(C)C)C(C)(C)C)C(=O)NS(=O)(=O)C1CC1 (centres undefined) [Asunaprevir] here?
Its IL-6-GFP fluorescence is 0.9597 ± 0.00098.

For COc1ccc(S(=O)(=O)N(C(C)=O)c2ccccc2/C=C/c2cc[n+]([O-])cc2)cc1, which IL-6-GFP fluorescence is on record?
Its IL-6-GFP fluorescence is 2.12 ± 0.18.

Which IL-6-GFP fluorescence does the source give for COc1cc2nccc(Oc3ccc(NC(=O)C4(C(=O)Nc5ccc(F)cc5)CC4)cc3)c2cc1OC here?
The IL-6-GFP fluorescence was 0.997 ± 0.18.

CCC(C)n1ncn(-c2ccc(N3CCN(c4ccc(OCC5COC(Cn6cncn6)(c6ccc(Cl)cc6Cl)O5)cc4)CC3)cc2)c1=O (centres undefined) [Itraconazole] was tested. Which IL-6-GFP fluorescence did it give?
The IL-6-GFP fluorescence was 0.958 ± 0.13.

Which IL-6-GFP fluorescence does the source give for CCOc1ccc(Cc2cc(C34OCC(CO)(O3)C(O)C(O)C4O)ccc2Cl)cc1 (centres undefined) [Ertugliflozin] here?
Its IL-6-GFP fluorescence is 0.765 ± 0.015.

CNC(=O)c1cc(Oc2ccc(NC(=O)Nc3ccc(Cl)c(C(F)(F)F)c3)cc2)ccn1.Cc1ccc(S(=O)(=O)O)cc1 [Sorafenib Tosylate] was tested. Which IL-6-GFP fluorescence did it give?
Its IL-6-GFP fluorescence is 0.886 ± 0.14.

For COc1nc2ccc(Br)cc2cc1C(c1ccccc1)C(O)(CCN(C)C)c1cccc2ccccc12 (centres undefined) [Bedaquiline], which IL-6-GFP fluorescence is on record?
Its IL-6-GFP fluorescence is 0.783 ± 0.028.

With CNNCc1ccc(C(=O)NC(C)C)cc1.Cl [Procarbazine HCl] as the molecule, how does the IL-6-GFP fluorescence read?
The IL-6-GFP fluorescence was 1.19 ± 0.083.

With COc1ccc2cc(C(C)C(=O)O)ccc2c1 (centres undefined) [Naproxen] as the molecule, how does the IL-6-GFP fluorescence read?
The IL-6-GFP fluorescence was 0.812 ± 0.12.

How did the IL-6-GFP fluorescence turn out when COc1ccc2c(c1)c(CC(=O)OCC(=O)O)c(C)n2C(=O)c1ccc(Cl)cc1 [Acemetacin] was run?
The IL-6-GFP fluorescence was 0.758 ± 0.12.

How did the IL-6-GFP fluorescence turn out when CC(C(=O)O)c1ccc2c(c1)Cc1cccnc1O2 (centres undefined) [Pranoprofen] was run?
Its IL-6-GFP fluorescence is 0.8881 ± 0.0073.

With Cc1nnc(C(=O)NC(C)(C)c2nc(C(=O)NCc3ccc(F)cc3)c(O)c(=O)n2C)o1 [Raltegravir (MK-0518)] as the molecule, how does the IL-6-GFP fluorescence read?
The IL-6-GFP fluorescence was 0.857 ± 0.18.

For O=c1ccc2ccc(O)c(O)c2o1 [Daphnetin], which IL-6-GFP fluorescence is on record?
The IL-6-GFP fluorescence was 1.79 ± 0.67.

How did the IL-6-GFP fluorescence turn out when COc1nc2ccc(Br)cc2cc1C(c1ccccc1)C(O)(CCN(C)C)c1cccc2ccccc12.O=C(O)/C=C/C(=O)O (centres undefined) [Bedaquiline fumarate] was run?
The IL-6-GFP fluorescence was 0.818 ± 0.057.

How did the IL-6-GFP fluorescence turn out when CCC(Nc1ncnc2[nH]cnc12)c1nc2cccc(F)c2c(=O)n1-c1ccccc1 (centres undefined) [Idelalisib (CAL-101, GS-1101)] was run?
The IL-6-GFP fluorescence was 0.996 ± 0.38.

For CC(C)(C#N)c1cc(Cn2cncn2)cc(C(C)(C)C#N)c1 [Anastrozole], which IL-6-GFP fluorescence is on record?
The IL-6-GFP fluorescence was 0.888 ± 0.097.

Which IL-6-GFP fluorescence does the source give for CCCCCCCCc1ccc(CCC(N)(CO)CO)cc1 [Fingolimod] here?
The IL-6-GFP fluorescence was 0.812 ± 0.029.

CN1CCC(=C2c3ccccc3CCc3cccnc32)CC1.O=C(O)/C=C\C(=O)O.O=C(O)/C=C\C(=O)O [Azatadine dimaleate] was tested. Which IL-6-GFP fluorescence did it give?
Its IL-6-GFP fluorescence is 0.971 ± 0.06.

For COc1cc2nccc(Oc3ccc(NC(=O)NC4CC4)c(Cl)c3)c2cc1C(N)=O [Lenvatinib (E7080)], which IL-6-GFP fluorescence is on record?
Its IL-6-GFP fluorescence is 0.874 ± 0.068.

How did the IL-6-GFP fluorescence turn out when COC(c1ccccc1)(c1ccccc1)C(Oc1nc(C)cc(C)n1)C(=O)O (centres undefined) [Ambrisentan] was run?
Its IL-6-GFP fluorescence is 0.885 ± 0.34.

How did the IL-6-GFP fluorescence turn out when CCC(C)(Oc1ccc(C2(c3ccc(OC(C)(CC)C(=O)O)cc3)CCCCC2)cc1)C(=O)O (centres undefined) [Clinofibrate] was run?
Its IL-6-GFP fluorescence is 0.796 ± 0.11.

With N#CC1(c2ccc(NC(=O)c3cccnc3NCc3ccncc3)cc2)CCCC1 [Apatinib] as the molecule, how does the IL-6-GFP fluorescence read?
The IL-6-GFP fluorescence was 0.905 ± 0.033.

O=c1oc2cc(O)ccc2s1 [Tioxolone] was tested. Which IL-6-GFP fluorescence did it give?
The IL-6-GFP fluorescence was 0.874 ± 0.42.

With Cl.c1ccc2c(c1)CCCC2C1=NCCN1 (centres undefined) [Tetrahydrozoline HCl] as the molecule, how does the IL-6-GFP fluorescence read?
Its IL-6-GFP fluorescence is 0.898 ± 0.11.

Which IL-6-GFP fluorescence does the source give for C[Se]CC[C@H](N)C(=O)O [L-SelenoMethionine] here?
The IL-6-GFP fluorescence was 2.13 ± 0.29.

Which IL-6-GFP fluorescence does the source give for CCOc1ccccc1OCCNC(C)Cc1ccc(OC)c(S(N)(=O)=O)c1 (centres undefined) [Tamsulosin] here?
The IL-6-GFP fluorescence was 0.909 ± 0.15.

With Cc1ccc(-c2cc(C(F)(F)F)nn2-c2ccc(S(N)(=O)=O)cc2)cc1 [Celecoxib] as the molecule, how does the IL-6-GFP fluorescence read?
The IL-6-GFP fluorescence was 0.899 ± 0.023.

For CC(=O)Oc1cccc2c1C(=O)c1c(OC(C)=O)cc(C(=O)O)cc1C2=O [Diacerein], which IL-6-GFP fluorescence is on record?
The IL-6-GFP fluorescence was 0.91 ± 0.17.

How did the IL-6-GFP fluorescence turn out when NCCNc1ccc(NCCN)c2c1C(=O)c1ccncc1C2=O.O=C(O)/C=C\C(=O)O.O=C(O)/C=C\C(=O)O [Pixantrone Maleate] was run?
The IL-6-GFP fluorescence was 0.759 ± 0.07.

How did the IL-6-GFP fluorescence turn out when CC12C=CC(=O)C=C1CCC1C3CC(O)C(O)(C(=O)CO)C3(C)CC(O)C12F (centres undefined) [Triamcinolone] was run?
The IL-6-GFP fluorescence was 0.932 ± 0.15.

For CN(C)c1cc(CNCC(C)(C)C)c(O)c2c1CC1CC3C(N(C)C)C(O)=C(C(N)=O)C(=O)C3(O)C(O)=C1C2=O.Cc1ccc(S(=O)(=O)O)cc1 (centres undefined) [Omadacycline tosylate], which IL-6-GFP fluorescence is on record?
The IL-6-GFP fluorescence was 0.732 ± 0.012.

Which IL-6-GFP fluorescence does the source give for COC1CC2CCC(C)C(O)(O2)C(=O)C(=O)N2CCCCC2C(=O)OC(C(C)CC2CCC(OP(C)(C)=O)C(OC)C2)CC(=O)C(C)/C=C(\C)C(O)C(OC)C(=O)C(C)CC(C)/C=C/C=C/C=C/1C (centres undefined) [Ridaforolimus (Deforolimus, MK-8669)] here?
The IL-6-GFP fluorescence was 0.91 ± 0.06.

CC(=O)OCC(CCn1cnc2cnc(N)nc21)COC(C)=O [Famciclovir] was tested. Which IL-6-GFP fluorescence did it give?
The IL-6-GFP fluorescence was 0.825 ± 0.17.

With Cl.N=C1CCCN1Cc1[nH]c(=O)[nH]c(=O)c1Cl [Tipiracil hydrochloride] as the molecule, how does the IL-6-GFP fluorescence read?
Its IL-6-GFP fluorescence is 0.82 ± 0.17.

OCc1ccccc1OC1OC(CO)C(O)C(O)C1O (centres undefined) [Salicin] was tested. Which IL-6-GFP fluorescence did it give?
Its IL-6-GFP fluorescence is 1.02 ± 0.036.

COc1cc(C2Oc3ccc(C4Oc5cc(O)cc(O)c5C(=O)C4O)cc3OC2CO)ccc1O (centres undefined) [Silymarin] was tested. Which IL-6-GFP fluorescence did it give?
The IL-6-GFP fluorescence was 0.752 ± 0.13.
